# Experimental data published in article PMC8482512.
# Protein sequences, listed by entry. Tags and fused reporters are not part of them. Lines headed by an entry give the natural chain unless they say otherwise; changes in a name come on top.
# UniProt Q04689: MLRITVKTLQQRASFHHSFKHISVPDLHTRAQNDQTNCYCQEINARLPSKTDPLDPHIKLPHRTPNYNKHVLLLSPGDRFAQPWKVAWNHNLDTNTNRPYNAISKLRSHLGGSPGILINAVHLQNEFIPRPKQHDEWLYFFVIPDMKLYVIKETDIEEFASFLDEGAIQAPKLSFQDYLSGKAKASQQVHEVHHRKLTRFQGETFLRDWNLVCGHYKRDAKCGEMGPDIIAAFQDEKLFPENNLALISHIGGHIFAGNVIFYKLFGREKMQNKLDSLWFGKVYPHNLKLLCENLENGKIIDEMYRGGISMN
# Tests used:
# Test in all cases: pull-down; mitochondria of His-tagged strains solubilized in 1% digitonin, 500 μg lysate incubated with Ni2+-agarose beads, washed, eluted, immunoblot; untagged WT strain as control
# [1] = target: T1, His-tagged Tim23 (S. cerevisiae) (UniProt P32897)
# T1 sequence: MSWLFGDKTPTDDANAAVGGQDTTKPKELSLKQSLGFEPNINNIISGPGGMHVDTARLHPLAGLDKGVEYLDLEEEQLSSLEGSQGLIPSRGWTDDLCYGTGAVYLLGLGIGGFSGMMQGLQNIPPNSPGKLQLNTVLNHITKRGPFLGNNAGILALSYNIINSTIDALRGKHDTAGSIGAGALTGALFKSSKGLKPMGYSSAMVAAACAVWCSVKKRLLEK
# [2] = target: T2, His-tagged Tim17 (S. cerevisiae) (UniProt P39515)
# T2 sequence: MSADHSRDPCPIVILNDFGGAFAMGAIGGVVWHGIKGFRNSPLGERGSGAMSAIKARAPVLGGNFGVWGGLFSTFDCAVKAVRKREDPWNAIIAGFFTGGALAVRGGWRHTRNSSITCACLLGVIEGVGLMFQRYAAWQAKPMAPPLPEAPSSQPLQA
# [3] = target: T3, Erv1 with a C-terminal histidine tag (Erv1-His) (S. cerevisiae) (UniProt P27882)
# T3 sequence: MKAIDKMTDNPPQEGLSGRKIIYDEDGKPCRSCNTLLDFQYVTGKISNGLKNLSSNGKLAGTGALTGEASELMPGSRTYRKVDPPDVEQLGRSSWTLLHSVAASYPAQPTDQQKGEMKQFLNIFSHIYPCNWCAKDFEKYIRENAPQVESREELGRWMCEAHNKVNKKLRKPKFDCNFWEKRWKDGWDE
binding [1],binding [2],binding [3],Substance
binds,binds,–,Altered inheritance of mitochondria 32 (Aim32) (from UniProt Q04689)
–,–,binds,cytochrome c

# Results are given in words; binding and its absence hold for the method and conditions named. Binding seen in cells or lysates may run through a third protein. Binding can be weak; no strength is given. Sequences can lack the tags named with a protein.
